The assay deals with T1, GFP-Tht1 (twin horsetails protein 1, meiotic nuclear fusion protein) (S. pombe) (UniProt Q09684).
T1 sequence (chain, S-palmitoylated at cysteine 65 and 78 (MALDI MS/MS of the pulled-down protein)): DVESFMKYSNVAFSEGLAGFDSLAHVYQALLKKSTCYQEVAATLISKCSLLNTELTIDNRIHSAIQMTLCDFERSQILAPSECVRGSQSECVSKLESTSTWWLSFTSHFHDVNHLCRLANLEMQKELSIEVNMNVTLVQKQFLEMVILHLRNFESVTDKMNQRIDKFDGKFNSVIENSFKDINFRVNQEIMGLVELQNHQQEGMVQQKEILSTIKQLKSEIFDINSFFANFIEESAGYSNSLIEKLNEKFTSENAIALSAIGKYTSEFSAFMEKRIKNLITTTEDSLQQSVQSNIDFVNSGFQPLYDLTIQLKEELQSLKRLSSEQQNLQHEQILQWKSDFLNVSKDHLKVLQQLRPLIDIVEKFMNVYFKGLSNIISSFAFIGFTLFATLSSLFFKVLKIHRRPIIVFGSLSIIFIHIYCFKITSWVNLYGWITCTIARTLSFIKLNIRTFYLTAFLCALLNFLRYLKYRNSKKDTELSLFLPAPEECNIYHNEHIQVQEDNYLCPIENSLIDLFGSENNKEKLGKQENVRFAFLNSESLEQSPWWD
Kind of assay: affinity purification with mass spectrometry; GFP-Trap pull-down of GFP-Tht1 from S. pombe lysate; SDS-PAGE, SYPRO Ruby staining, bands excised, trypsin, MS identification.

These are yes or no findings as the source states them, for the method shown. In cells and extracts the contact can be indirect. A yes stands for co-enrichment or nearness to the bait. Other partners may have been found. Sequences can lack the tags named with a protein.

1 molecule from article PMC9845910 can be followed below.

B1: Sey1, ER fusion GTPase (as found by mass spectrometry in the GFP-Tht1 pull-down) (protein, UniProt Q9UTE0 1-762)
chain: MSTASNRVSTQIVDEHKQFNNELPKFMQSVGLLDAGFNYHVVAVLGSQSTGKSTLLNNLFGTSFSVMDASKRQQTTKGIWLSKANNSPILVMDVEGTDGRERGEDQDFERKSALFSISTSEVIIVNMWENQVGLYQGSNMALLKTVLEVNLQLFHNKKERCLLQFVIRDFLGNTSMENLADTIMTDLNNIWASLSKPEGFENSVINDFFDVGFTGLPHKILCSDAFSEAVDSLRERFVDNNNSDYIFNVSYHKKIPADGFSLYTREIWDTIENNKDLDLPTQQQLLAQYRCDEIITEVMEPFSTACTILQKEFLPGNLCKDLPTKLLNMFETVIEAYDRQASRYNVHIYQKKKQELIASVDSHLYVFFQAQLNALHKELIKSFFDASNEFPSDTPFKESSSIKINELVNKMREEGESLSLPHVHWDVDPFILKLSEELTQNSETLCKEKLKEKLEELFTGFEFEVSEAVEVAFQKLSHNVWDTLLNEFLAAQNTTIEKIKNIVPFYVDIDDTKTTEEYIINFKKNSWLFFRKKIDSEMSEVLLQQRLRVYFEELFRYDSDGMPKLWKKSGTIDRDYRESLTKTLDLINVLASIKVSDGNYPDLNVDIKTLEPEYTSPASFFTILNRRRVSDISVNFKRSADLIFMDCKRSVINTTTRIPPYFWVLLIVLGWNEFMAILRNPFVFMILMFGGTVVYGLYISGLIWPAKMVLERATNNLVDLATDRFSNTYQEQVQQRAMQRTEKSGSPVASADDAEAEKTALS
With B1, the binding entry is listed as “binds”.
